# Test results taken from patent US20230126992A1, “Antibacterial Antiviral Pharmaceutical Composition and Application Thereof” (priority 2020, published 2023).
# Test: Toxicity test to Vero E6 cells (CCK8)
# Details: African green monkey
smiles,measurement,value
CCC(CC)COC(=O)[C@H](C)N[P@](=O)(OC[C@H]1O[C@@](C#N)(c2ccc3c(N)ncnn23)[C@H](O)[C@@H]1O)Oc1ccccc1 [Remdesivir],CC50 at 3 days,> 200 µM
